# Measurements reported in article PMC9153692.
# Sequences of proteins named here, by UniProt entry; tags and fusion partners are left off.
# UniProt Q2HR75: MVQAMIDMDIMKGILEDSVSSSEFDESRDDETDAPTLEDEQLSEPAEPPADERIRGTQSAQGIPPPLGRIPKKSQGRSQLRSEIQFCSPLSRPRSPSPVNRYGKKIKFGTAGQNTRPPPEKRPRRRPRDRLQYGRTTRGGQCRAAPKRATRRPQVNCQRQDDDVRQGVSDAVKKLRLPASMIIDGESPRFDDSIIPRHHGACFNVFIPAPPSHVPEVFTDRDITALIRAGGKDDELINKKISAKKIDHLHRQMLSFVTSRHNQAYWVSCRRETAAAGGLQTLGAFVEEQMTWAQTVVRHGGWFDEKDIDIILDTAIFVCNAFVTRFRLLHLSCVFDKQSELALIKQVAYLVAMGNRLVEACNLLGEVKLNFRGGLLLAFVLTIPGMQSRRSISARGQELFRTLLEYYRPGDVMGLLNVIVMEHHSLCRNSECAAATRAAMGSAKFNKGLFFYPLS
# UniProt Q9H361: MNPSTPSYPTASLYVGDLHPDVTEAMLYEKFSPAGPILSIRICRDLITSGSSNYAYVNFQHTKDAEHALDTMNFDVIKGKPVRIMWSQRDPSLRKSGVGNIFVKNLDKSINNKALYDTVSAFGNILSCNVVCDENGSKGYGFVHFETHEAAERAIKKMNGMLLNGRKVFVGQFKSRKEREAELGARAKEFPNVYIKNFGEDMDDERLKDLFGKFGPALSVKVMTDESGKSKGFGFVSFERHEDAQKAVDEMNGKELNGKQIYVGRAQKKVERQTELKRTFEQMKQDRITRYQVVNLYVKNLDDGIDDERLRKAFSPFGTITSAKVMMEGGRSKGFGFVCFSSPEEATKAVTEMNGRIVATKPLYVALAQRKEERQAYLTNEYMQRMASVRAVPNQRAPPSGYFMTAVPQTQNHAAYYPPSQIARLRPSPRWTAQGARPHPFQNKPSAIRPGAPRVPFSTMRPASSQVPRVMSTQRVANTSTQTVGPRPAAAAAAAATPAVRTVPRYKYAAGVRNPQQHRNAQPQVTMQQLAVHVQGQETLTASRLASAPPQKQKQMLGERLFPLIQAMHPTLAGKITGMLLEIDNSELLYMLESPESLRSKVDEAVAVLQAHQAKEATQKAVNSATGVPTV
# UniProt Q13123: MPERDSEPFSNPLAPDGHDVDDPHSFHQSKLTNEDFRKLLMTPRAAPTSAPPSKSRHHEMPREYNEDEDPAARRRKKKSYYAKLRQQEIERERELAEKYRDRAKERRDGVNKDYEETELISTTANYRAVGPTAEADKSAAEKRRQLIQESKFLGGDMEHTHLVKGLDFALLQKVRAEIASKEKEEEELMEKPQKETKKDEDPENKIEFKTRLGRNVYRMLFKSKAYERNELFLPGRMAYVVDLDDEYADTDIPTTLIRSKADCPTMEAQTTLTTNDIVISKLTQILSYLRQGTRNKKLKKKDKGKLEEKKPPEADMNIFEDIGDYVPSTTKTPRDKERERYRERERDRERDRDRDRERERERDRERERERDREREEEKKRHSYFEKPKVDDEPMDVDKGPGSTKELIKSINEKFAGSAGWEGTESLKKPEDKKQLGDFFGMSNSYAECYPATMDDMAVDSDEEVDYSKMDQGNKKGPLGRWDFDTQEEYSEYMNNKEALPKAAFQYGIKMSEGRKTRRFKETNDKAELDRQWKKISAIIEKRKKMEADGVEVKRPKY
# Biological target: KSHV ORF57 N-terminally fused to mini-TurboID (Kaposi sarcoma-associated herpesvirus (KSHV), BAC16) (UniProt Q2HR75)
# Assay: proximity labelling; mTID-57 PAN WT and PAN MRE mutant iSLK cells reactivated (doxycycline, TPA), biotin; biotinylated proteins identified by mass spectrometry; enrichment compared between PAN RNA WT and MRE mutant
row,Substance,binding
1,PABPC3 (from UniProt Q9H361 1-631),binds
2,IK (from UniProt Q13123 1-557),binds

# Results are given in words; binding and its absence hold for the method and conditions named. In cells and extracts the contact can be indirect. These calls come from enrichment with a bait or labelling near it, and not all partners need be listed.
